Laboratory results reported in patent US7989649B2, “Tumor imaging compounds” (Emory University, priority 2002, dated 2011).
Some results were stated once for a whole list of compounds, not compound by compound.

Assay: Storage stability of cyclic sulfamidate precursors
Type: physicochemical
Settings: stored at −10° C.

| Structure (SMILES) | storage stability |
| --- | --- |
| CN1C(C)(C(=O)OC(C)(C)C)COS1(=O)=O (centres unmarked) [Compound 14b, 3,4-dimethyl-1,2,3-oxathiazolidine-4-carboxylic acid tert-butyl ester 2,2-dioxide] | at least 6 months |
| COc1ccc(C(c2ccc(OC)cc2)N2C(C)(C(=O)OC(C)(C)C)COS2(=O)=O)cc1 (centres unmarked) [Compound 14a, 3-[bis(4-methoxyphenyl)methyl]-4-methyl-1,2,3-oxathiazolidine-4-carboxylic acid tert-butyl ester 2,2-dioxide] | at least 6 months |
